Data from paper PMC10392088.
Results are given in words; binding and its absence hold for the method and conditions named. Some results given as binding are weak or reduced against the parent protein; the word gives no strength.

By UniProt entry, the sequences of proteins in these tests, tags left out. Where a name states a change or a piece, a line headed by the entry shows the natural chain unless it says otherwise.
UniProt P02454: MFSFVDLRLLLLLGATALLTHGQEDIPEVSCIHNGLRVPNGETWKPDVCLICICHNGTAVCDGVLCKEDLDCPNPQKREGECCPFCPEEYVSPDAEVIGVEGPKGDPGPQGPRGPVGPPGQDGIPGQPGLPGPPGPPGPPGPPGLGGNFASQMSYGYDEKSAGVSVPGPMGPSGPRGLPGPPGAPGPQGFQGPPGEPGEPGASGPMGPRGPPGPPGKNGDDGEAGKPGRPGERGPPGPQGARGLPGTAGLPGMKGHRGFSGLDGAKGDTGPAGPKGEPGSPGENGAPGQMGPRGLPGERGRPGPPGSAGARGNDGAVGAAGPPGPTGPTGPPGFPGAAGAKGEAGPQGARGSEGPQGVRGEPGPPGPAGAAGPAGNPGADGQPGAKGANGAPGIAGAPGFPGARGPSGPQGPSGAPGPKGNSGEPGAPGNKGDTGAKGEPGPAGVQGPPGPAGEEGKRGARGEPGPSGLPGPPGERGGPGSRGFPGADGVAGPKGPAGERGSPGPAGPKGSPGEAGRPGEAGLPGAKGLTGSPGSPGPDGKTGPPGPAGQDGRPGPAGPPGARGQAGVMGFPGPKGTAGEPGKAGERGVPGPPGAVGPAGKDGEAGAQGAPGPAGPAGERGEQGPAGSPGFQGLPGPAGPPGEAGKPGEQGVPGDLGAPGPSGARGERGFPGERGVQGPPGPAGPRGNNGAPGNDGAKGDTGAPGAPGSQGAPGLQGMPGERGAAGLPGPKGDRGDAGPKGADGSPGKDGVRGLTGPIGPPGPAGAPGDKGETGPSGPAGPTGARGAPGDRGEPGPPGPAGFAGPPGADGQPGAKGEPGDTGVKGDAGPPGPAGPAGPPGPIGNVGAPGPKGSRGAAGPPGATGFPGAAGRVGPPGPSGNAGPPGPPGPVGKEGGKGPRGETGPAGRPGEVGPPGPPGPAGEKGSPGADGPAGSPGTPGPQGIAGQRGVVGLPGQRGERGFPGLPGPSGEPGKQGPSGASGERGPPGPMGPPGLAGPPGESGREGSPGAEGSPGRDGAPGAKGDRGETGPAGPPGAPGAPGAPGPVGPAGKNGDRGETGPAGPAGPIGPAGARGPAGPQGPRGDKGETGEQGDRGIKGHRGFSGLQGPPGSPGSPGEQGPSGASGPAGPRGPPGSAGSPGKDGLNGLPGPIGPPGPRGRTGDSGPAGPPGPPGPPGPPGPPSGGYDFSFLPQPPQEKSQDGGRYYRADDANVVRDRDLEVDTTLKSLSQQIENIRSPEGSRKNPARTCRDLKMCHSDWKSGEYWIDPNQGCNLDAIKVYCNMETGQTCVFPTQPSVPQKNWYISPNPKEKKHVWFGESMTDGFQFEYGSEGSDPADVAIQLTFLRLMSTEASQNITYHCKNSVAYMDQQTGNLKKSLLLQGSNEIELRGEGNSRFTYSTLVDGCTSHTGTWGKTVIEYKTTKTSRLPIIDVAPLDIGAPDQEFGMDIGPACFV
UniProt P08670: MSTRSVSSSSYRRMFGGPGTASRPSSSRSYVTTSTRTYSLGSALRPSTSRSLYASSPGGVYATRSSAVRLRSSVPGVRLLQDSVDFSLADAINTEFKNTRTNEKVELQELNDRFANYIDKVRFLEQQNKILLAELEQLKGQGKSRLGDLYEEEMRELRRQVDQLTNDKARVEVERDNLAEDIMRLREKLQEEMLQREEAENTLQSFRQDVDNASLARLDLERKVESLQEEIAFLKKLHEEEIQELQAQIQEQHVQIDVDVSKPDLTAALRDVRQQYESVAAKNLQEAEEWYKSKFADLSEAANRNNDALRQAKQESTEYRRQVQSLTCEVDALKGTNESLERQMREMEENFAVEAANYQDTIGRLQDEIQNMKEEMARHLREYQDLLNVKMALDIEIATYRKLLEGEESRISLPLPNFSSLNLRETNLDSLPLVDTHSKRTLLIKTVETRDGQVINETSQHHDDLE

Biological target: Collagen I (UniProt P02454)
Assay: fluorescence imaging of labelled protein on a protein-coated hydrogel; collagen I covalently linked (Sulfo-SANPAH) to a 30 kPa polyacrylamide gel; gel stained with rhodamine-labeled soluble vimentin; uncoated gel as control; both purified

**Q.** Which binding does the source give for “Rhodamine-labeled vimentin (from UniProt P08670 1-466)” here?
**A.** The binding was “binds”.
